{
  "source": "patent US7101851",
  "about": "(dated 2006)",
  "note": "These are yes or no findings as the source states them, for the method shown. Some entries that bind do so weakly or less than the wild type.",
  "data": [
    {"biological_target": "T1, FcεRI-IgG (UniProt P12319 26-205)", "T1 construct": "extracellular domain; Produced from CHO cells (Genentech); also called FcεRI-Fc; bivalent fusion protein of the extracellular domain of FcεRI and the Fc domain of IgG; not shown: Fc domain of IgG", "T1 sequence (looked up)": "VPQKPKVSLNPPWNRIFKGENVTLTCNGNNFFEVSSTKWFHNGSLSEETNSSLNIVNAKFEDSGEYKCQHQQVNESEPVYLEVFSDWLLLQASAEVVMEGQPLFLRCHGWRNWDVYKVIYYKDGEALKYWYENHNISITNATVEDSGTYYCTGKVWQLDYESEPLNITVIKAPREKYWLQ", "assay": "p8 phage clone, phage ELISA on FcεRI-IgG", "values": [
      {"binder": "AECPIMCYS (peptide, not shown: large carriers)", "binding": "binds"},
      {"binder": "VECPAVCYV (peptide, not shown: large carriers)", "binding": "binds"},
      {"binder": "AICPALCYE (peptide, not shown: large carriers)", "binding": "binds"},
      {"binder": "QVCPAICYS (peptide, not shown: large carriers)", "binding": "binds"},
      {"binder": "ALCPEVCYV (peptide, not shown: large carriers)", "binding": "binds"},
      {"binder": "SVCPSLCYV (peptide, not shown: large carriers)", "binding": "binds"},
      {"binder": "LVCPDLCYG (peptide, not shown: large carriers)", "binding": "binds"},
      {"binder": "AECPLGCYA (peptide, not shown: large carriers)", "binding": "binds"},
      {"binder": "LNCSQPCQR (peptide, not shown: large carriers)", "binding": "binds"}
    ]},
    {"biological_target": "extracellular domain of the alpha subunit of the human FcεRI (aa 1-176) (human) (UniProt P12319)", "assay": "competitive phage ELISA on FcεRI (FIG. 1)", "values": [
      {"binder": "IVCPRLCYVGGKALCPDVCYVGGGSGGGGSGSGDY (peptide, not shown: large carriers)", "note": "[IGE120-phage …]", "binding": "binds"}
    ]},
    {"biological_target": "T1, FcεRI-IgG", "assay": "g8 phage clones selected on immobilized FcεRI-IgG", "values": [
      {"binder": "TGEACVEGPGAWVCCLEP (peptide, not shown: large carriers)", "note": "[g8a.20 phage clone …]", "binding": "binds"},
      {"binder": "QEWTCVEGPRGWECIAVL (peptide, not shown: large carriers)", "note": "[g8a.18 phage clone …]", "binding": "binds"}
    ]}
  ]
}
